PubChem BioAssay AID1224830, NIAID | 2016

Purpose: 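Host factors that control LPS-induced TNF expression in human macrophages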 (primary screen)
System: human THP-1 monocytic leukaemia cells, TNF dual-luciferase reporter clone, PMA-differentiated to macrophage-like cells
Knock-down reagent: siRNA pool against human genes, 50 nM
Duration: LPS for 4 h, given about 3 days after siRNA transfection
Treatment: bacterial LPS (TLR4 ligand), 10 ng/ml
Detection: 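Ratio of firefly to renilla light, scaled to the plate median and expressed as a robust z-score per replicate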
Scale: TNF reporter robust z-score: higher = stronger TNF reporter response to LPS
Call rule: 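a well is active when its z-score exceeds 2.8 or falls below -1.5; control wells carry no call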
The deposit covers about 18,000 reagents; this is a random part of them. Of all reagents, about 2,900 (16%) got an active call. 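Calls are made per well; low scores hint the gene aids the LPS response, high scores that it dampens it.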 Repeated entries: four replicate wells of each siRNA pool.

no.	target	TNF reporter robust z-score	outcome
1	RCE1 (Ras converting CAAX endopeptidase 1)	-0.1	inactive
2	RCE1 (Ras converting CAAX endopeptidase 1)	-0.95	inactive
3	RCE1 (Ras converting CAAX endopeptidase 1)	-1.3	inactive
4	RCE1 (Ras converting CAAX endopeptidase 1)	-0.61	inactive
5	OR1J1 (olfactory receptor family 1 subfamily J member 1)	0.36	inactive
6	OR1J1 (olfactory receptor family 1 subfamily J member 1)	0.74	inactive
7	OR1J1 (olfactory receptor family 1 subfamily J member 1)	-0.27	inactive
8	OR1J1 (olfactory receptor family 1 subfamily J member 1)	0.15	inactive
9	MIIP (migration and invasion inhibitory protein)	-0.33	inactive
10	MIIP (migration and invasion inhibitory protein)	-0.01	inactive
11	MIIP (migration and invasion inhibitory protein)	-0.84	inactive
12	MIIP (migration and invasion inhibitory protein)	-0.26	inactive
13	PCGF3 (polycomb group ring finger 3)	1.45	inactive
14	PCGF3 (polycomb group ring finger 3)	0.87	inactive
15	PCGF3 (polycomb group ring finger 3)	0.2	inactive
16	PCGF3 (polycomb group ring finger 3)	-0.48	inactive
17	LAMB1 (laminin subunit beta 1)	0.63	inactive
18	LAMB1 (laminin subunit beta 1)	1.7	inactive
19	LAMB1 (laminin subunit beta 1)	0.77	inactive
20	LAMB1 (laminin subunit beta 1)	0.79	inactive
21	ADAMTS2 (ADAM metallopeptidase with thrombospondin type 1 motif 2)	0.91	inactive
22	ADAMTS2 (ADAM metallopeptidase with thrombospondin type 1 motif 2)	2.31	inactive
23	ADAMTS2 (ADAM metallopeptidase with thrombospondin type 1 motif 2)	1	inactive
24	ADAMTS2 (ADAM metallopeptidase with thrombospondin type 1 motif 2)	0.63	inactive
25	SLC9A1	0.05	inactive
26	SLC9A1	-1.21	inactive
27	SLC9A1	0.16	inactive
28	SLC9A1	1.38	inactive
29	LYST (lysosomal trafficking regulator)	-0.18	inactive
30	LYST (lysosomal trafficking regulator)	-0.15	inactive
31	LYST (lysosomal trafficking regulator)	0.32	inactive
32	LYST (lysosomal trafficking regulator)	0.35	inactive
33	ATAT1 (alpha tubulin acetyltransferase 1)	1	inactive
34	ATAT1 (alpha tubulin acetyltransferase 1)	2.53	inactive
35	ATAT1 (alpha tubulin acetyltransferase 1)	1.68	inactive
36	FERMT2 (FERM domain containing kindlin 2)	-0.25	inactive
37	FERMT2 (FERM domain containing kindlin 2)	-0.36	inactive
38	FERMT2 (FERM domain containing kindlin 2)	-0.52	inactive
39	FERMT2 (FERM domain containing kindlin 2)	0	inactive
40	GLRA3 (glycine receptor alpha 3)	-0.35	inactive
41	GLRA3 (glycine receptor alpha 3)	-0.44	inactive
42	GLRA3 (glycine receptor alpha 3)	0.82	inactive
43	GLRA3 (glycine receptor alpha 3)	0.83	inactive
44	NPFF (neuropeptide FF-amide peptide precursor)	-0.89	inactive
45	NPFF (neuropeptide FF-amide peptide precursor)	-0.62	inactive
46	NPFF (neuropeptide FF-amide peptide precursor)	-0.64	inactive
47	NPFF (neuropeptide FF-amide peptide precursor)	-0.37	inactive
48	DNAAF4 (dynein axonemal assembly factor 4)	1.45	inactive
49	DNAAF4 (dynein axonemal assembly factor 4)	0	inactive
50	DNAAF4 (dynein axonemal assembly factor 4)	-0.18	inactive
51	DNAAF4 (dynein axonemal assembly factor 4)	0.55	inactive
52	JPT1 (Jupiter microtubule associated homolog 1)	-1.42	inactive
53	JPT1 (Jupiter microtubule associated homolog 1)	-0.2	inactive
54	JPT1 (Jupiter microtubule associated homolog 1)	-0.15	inactive
55	JPT1 (Jupiter microtubule associated homolog 1)	0	inactive
56	ALDOB (aldolase, fructose-bisphosphate B)	1.31	inactive
57	ALDOB (aldolase, fructose-bisphosphate B)	2.39	inactive
58	ALDOB (aldolase, fructose-bisphosphate B)	1.7	inactive
59	ALDOB (aldolase, fructose-bisphosphate B)	0.41	inactive
60	AMN1 (antagonist of mitotic exit network 1 homolog)	-0.94	inactive
61	AMN1 (antagonist of mitotic exit network 1 homolog)	-0.13	inactive
62	AMN1 (antagonist of mitotic exit network 1 homolog)	0.97	inactive
63	AMN1 (antagonist of mitotic exit network 1 homolog)	-0.19	inactive
64	NTRK3 (neurotrophic receptor tyrosine kinase 3)	0.88	inactive
65	NTRK3 (neurotrophic receptor tyrosine kinase 3)	1.96	inactive
66	NTRK3 (neurotrophic receptor tyrosine kinase 3)	1.28	inactive
67	NTRK3 (neurotrophic receptor tyrosine kinase 3)	-0.44	inactive
68	PLD6 (phospholipase D family member 6)	-1.57	active
69	PLD6 (phospholipase D family member 6)	0.67	inactive
70	PLD6 (phospholipase D family member 6)	0.28	inactive
71	PLD6 (phospholipase D family member 6)	1.54	inactive
72	CRNKL1 (crooked neck pre-mRNA splicing factor 1)	1.18	inactive
73	CRNKL1 (crooked neck pre-mRNA splicing factor 1)	0.6	inactive
74	CRNKL1 (crooked neck pre-mRNA splicing factor 1)	1.35	inactive
75	CRNKL1 (crooked neck pre-mRNA splicing factor 1)	-0.01	inactive
76	HYAL3 (hyaluronidase 3)	-0.01	inactive
77	HYAL3 (hyaluronidase 3)	0.39	inactive
78	HYAL3 (hyaluronidase 3)	-0.04	inactive
79	HYAL3 (hyaluronidase 3)	0.55	inactive
80	OR7D4 (olfactory receptor family 7 subfamily D member 4)	-0.42	inactive
81	OR7D4 (olfactory receptor family 7 subfamily D member 4)	0.39	inactive
82	OR7D4 (olfactory receptor family 7 subfamily D member 4)	0.35	inactive
83	OR7D4 (olfactory receptor family 7 subfamily D member 4)	0.5	inactive
84	TWNK (twinkle mtDNA helicase)	0.23	inactive
85	TWNK (twinkle mtDNA helicase)	-0.13	inactive
86	TWNK (twinkle mtDNA helicase)	-0.68	inactive
87	TWNK (twinkle mtDNA helicase)	-0.14	inactive
88	PIGT (phosphatidylinositol glycan anchor biosynthesis class T)	-0.83	inactive
89	PIGT (phosphatidylinositol glycan anchor biosynthesis class T)	-0.25	inactive
90	PIGT (phosphatidylinositol glycan anchor biosynthesis class T)	0.04	inactive
91	PIGT (phosphatidylinositol glycan anchor biosynthesis class T)	0.08	inactive
92	IFNL1 (interferon lambda 1)	-0.32	inactive
93	IFNL1 (interferon lambda 1)	0.09	inactive
94	IFNL1 (interferon lambda 1)	0.74	inactive
95	IFNL1 (interferon lambda 1)	0.22	inactive
96	OAS1 (2'-5'-oligoadenylate synthetase 1)	1.14	inactive
97	OAS1 (2'-5'-oligoadenylate synthetase 1)	1.91	inactive
98	OAS1 (2'-5'-oligoadenylate synthetase 1)	-0.52	inactive
99	OAS1 (2'-5'-oligoadenylate synthetase 1)	0.01	inactive
100	VKORC1L1 (vitamin K epoxide reductase complex subunit 1L1)	1.85	inactive
101	VKORC1L1 (vitamin K epoxide reductase complex subunit 1L1)	0.48	inactive
102	VKORC1L1 (vitamin K epoxide reductase complex subunit 1L1)	1.69	inactive
103	VKORC1L1 (vitamin K epoxide reductase complex subunit 1L1)	1.53	inactive
104	OR4C46 (olfactory receptor family 4 subfamily C member 46)	-0.71	inactive
105	OR4C46 (olfactory receptor family 4 subfamily C member 46)	0.27	inactive
106	OR4C46 (olfactory receptor family 4 subfamily C member 46)	-0.31	inactive
107	OR4C46 (olfactory receptor family 4 subfamily C member 46)	0.64	inactive
108	FAM9A (family with sequence similarity 9 member A)	2.03	inactive
109	FAM9A (family with sequence similarity 9 member A)	2.13	inactive
110	FAM9A (family with sequence similarity 9 member A)	-0.05	inactive
111	FAM9A (family with sequence similarity 9 member A)	-0.4	inactive

Reformatted: entries from further up
CRNKL1 (crooked neck pre-mRNA splicing factor 1)
- TNF reporter robust z-score: 1.35
- outcome: inactive

CRNKL1 (crooked neck pre-mRNA splicing factor 1)
- TNF reporter robust z-score: -0.01
- outcome: inactive

HYAL3 (hyaluronidase 3)
- TNF reporter robust z-score: -0.01
- outcome: inactive

HYAL3 (hyaluronidase 3)
- TNF reporter robust z-score: 0.39
- outcome: inactive

HYAL3 (hyaluronidase 3)
- TNF reporter robust z-score: -0.04
- outcome: inactive

HYAL3 (hyaluronidase 3)
- TNF reporter robust z-score: 0.55
- outcome: inactive

OR7D4 (olfactory receptor family 7 subfamily D member 4)
- TNF reporter robust z-score: -0.42
- outcome: inactive

OR7D4 (olfactory receptor family 7 subfamily D member 4)
- TNF reporter robust z-score: 0.39
- outcome: inactive

OR7D4 (olfactory receptor family 7 subfamily D member 4)
- TNF reporter robust z-score: 0.35
- outcome: inactive

OR7D4 (olfactory receptor family 7 subfamily D member 4)
- TNF reporter robust z-score: 0.5
- outcome: inactive
